Values are relative to the signal before dosing, not to a vehicle control; the signal also falls without drug.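 Labels refer to human fibroblasts, largely primary: uterine (C12385, HUF), lung (H6013), bone (Hs27A), adrenal (HADF), skin (WS1), plus mammary HMF and breast cancer-associated Hs343T. Cancer lines are basal-like or mesenchymal-like triple-negative breast cancer. The paper counts as hits responses shifting over 3x the replicate standard deviation. The tissue of the other fibroblasts is not given here.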
Tested on: MDAMB231
Experiment: relative JC-1 red fluorescence (viability) vs pre-drug, coculture with fibroblast (fraction); higher = more viable cancer cells
Protocol: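 JC-1 labelled TNBC cells cocultured 1:1 (1,500 cells each) with CellTrace Violet stained primary or stromal fibroblasts in 384-well plates in FluoroBrite medium, treated with one of 42 anticancer drugs at 0.1, 1, 10 or 100 uM. JC-1 red fluorescence (mitochondrial integrity in cancer cells only) was read by plate reader every 8 h for 72 h. Values are normalised to each well's pre-drug value. The stock of one drug was tenfold lower, so its dose labels may be too high.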

CO[C@H]1C[C@@H]2CC[C@@H](C)[C@@](O)(O2)C(=O)C(=O)N2CCCC[C@H]2C(=O)O[C@H]([C@H](C)C[C@@H]2CC[C@@H](OCCO)[C@H](OC)C2)CC(=O)[C@H](C)/C=C(\C)[C@@H](O)[C@@H](OC)C(=O)[C@H](C)C[C@H](C)/C=C/C=C/C=C/1C [Everolimus]
relative JC-1 red fluorescence
Settings	8 h	16 h	24 h	32 h	40 h	48 h	56 h	64 h	72 h
0.1 µM, coculture fibroblast: C12385	0.805	0.756	0.6727	0.6747	0.6204	0.59	0.559	0.564	0.532
0.1 µM, coculture fibroblast: H6013	0.873	0.807	0.758	0.7591	0.738	0.717	0.704	0.691	0.662
0.1 µM, coculture fibroblast: H6019	0.7627	0.714	0.651	0.642	0.611	0.59	0.566	0.566	0.543
0.1 µM, coculture fibroblast: H6076	0.8479	0.766	0.719	0.6897	0.6617	0.631	0.616	0.606	0.602
0.1 µM, coculture fibroblast: H6231	0.948	0.856	0.775	0.722	0.682	0.654	0.621	0.601	0.578
0.1 µM, coculture fibroblast: HADF	0.86	0.824	0.773	0.749	0.713	0.655	0.6618	0.643	0.609
0.1 µM, coculture fibroblast: HCFa	0.8904	0.83	0.7844	0.7565	0.7117	0.6732	0.658	0.63	0.592
0.1 µM, coculture fibroblast: HCPF	0.894	0.78	0.71	0.678	0.623	0.581	0.546	0.52	0.498
0.1 µM, coculture fibroblast: HHSteC	0.859	0.906	0.841	0.799	0.761	0.723	0.695	0.667	0.637
0.1 µM, coculture fibroblast: HMF	0.883	0.798	0.72021	0.686	0.64	0.601	0.562	0.545	0.524
0.1 µM, coculture fibroblast: HPFa	0.9438	0.89	0.833	0.7808	0.7681	0.7298	0.6938	0.6741	0.637
0.1 µM, coculture fibroblast: HUF	0.837	0.703	0.708	0.6	0.543	0.525	0.483	0.489	0.469
0.1 µM, coculture fibroblast: Hs5	0.923	0.853	0.799	0.755	0.711	0.664	0.627	0.591	0.566
0.1 µM, coculture fibroblast: Hs27A	0.87	0.797	0.746	0.729	0.6747	0.601	0.6215	0.607	0.581
0.1 µM, coculture fibroblast: Hs343T	0.839	0.706	0.639	0.6123	0.571	0.522	0.479	0.459	0.444
0.1 µM, coculture fibroblast: WS1	0.765	0.713	0.655	0.632	0.585	0.572	0.527	0.529	0.512
1 µM, coculture fibroblast: C12385	0.763	0.794	0.677	0.707	0.667	0.649	0.613	0.607	0.592
1 µM, coculture fibroblast: H6013	0.923	0.866	0.84	0.844	0.805	0.791	0.791	0.773	0.75
1 µM, coculture fibroblast: H6019	0.734	0.646	0.653	0.597	0.562	0.572	0.5344	0.548	0.517
1 µM, coculture fibroblast: H6076	0.911	0.855	0.754	0.885	0.846	0.822	0.807	0.802	0.801
1 µM, coculture fibroblast: H6231	0.92234	0.8432	0.798	0.7527	0.7039	0.68376	0.652	0.636	0.61301
1 µM, coculture fibroblast: HADF	0.884	0.855	0.813	0.79	0.762	0.723	0.718	0.702	0.655
1 µM, coculture fibroblast: HCFa	0.916	0.841	0.8263	0.8103	0.7761	0.71776	0.7009	0.676	0.65
1 µM, coculture fibroblast: HCPF	0.84	0.808	0.84	0.818	0.764	0.72	0.677	0.637	0.609
1 µM, coculture fibroblast: HHSteC	0.9257	0.865	0.84	0.822	0.803	0.782	0.752	0.741	0.711
1 µM, coculture fibroblast: HMF	0.923	0.862	0.8115	0.782	0.742	0.71	0.6832	0.661	0.646
1 µM, coculture fibroblast: HPFa	0.946	0.9018	0.847	0.8	0.78	0.74	0.705	0.689	0.649
1 µM, coculture fibroblast: HUF	0.8051	0.717	0.719	0.623	0.566	0.547	0.502	0.497	0.472
1 µM, coculture fibroblast: Hs5	0.931	0.866	0.839	0.809	0.773	0.74	0.717	0.698	0.685
1 µM, coculture fibroblast: Hs27A	0.829	0.792	0.77	0.768	0.743	0.728	0.735	0.741	0.704
1 µM, coculture fibroblast: Hs343T	0.888	0.807	0.758	0.729	0.686	0.647	0.599	0.583	0.554
1 µM, coculture fibroblast: WS1	0.748	0.706	0.6896	0.627	0.593	0.583	0.549	0.556	0.544

— the supplement of paper PMC6078165
